{
  "source": "patent US20240058288A1",
  "about": "“DRUG COCKTAIL FOR TREATMENT OF PARKINSON'S DISEASE, LEWY BODY DISEASE AND MULTIPLE SYSTEM ATROPHY” (ALETA NEUROSCIENCE, LLC, priority 2021, published 2024)",
  "tested_on": "human dopaminergic neurons (iCell DopaNeurons)",
  "assay": "MPP+-induced neurotoxicity: neurite outgrowth (neurite length, branch points) of iCell DopaNeurons, Incucyte",
  "assay_type": "cell-based",
  "excerpt": "We conducted an in vitro study of the drugs in Table 1 to evaluate the neuroprotective effects of 44 conditions of treatment (Table 2, experiments 1-41; 51-53) against MPP+-induced neurodegeneration toxicity on human dopaminergic neurons (iCell® DopaNeurons: iPS cell-derived human midbrain floorplate dopaminergic neurons). Further combinations (Table 2, experiments 42-50 and Table 3) are also disclosed.\niCell DOPA neurons are neural floor plate-derived midbrain dopaminergic neurons generated from human induced pluripotent stem cells (iPSCs). Dopaminergic neurons, specifically those located in the floor plate-derived midbrain are implicated in neurological disorders such as Parkinson's disease, MSA and DLBD among others. Thus iCell DopaNeurons provide a highly relevant in vitro model to investigate these types of pathologies (42, 43). The iCellDopa neurons were supplied from FUJIFILM Cellular Dynamics.\nThree different measurements were made in the experiments. 1. Neurite length in mm is a measure of increase in dendrite length of neurons. […] 2. neurite branching is measure of dendrite branching. […] 3. Cytolysis of the cells is a measure of cell death. […] Experimental conditions were measured relative to the results of healthy cells in the studies.\nProcedure. iCell DOPA neurons were thawed and cultured following the provider's instructions in Brainphys medium+provided supplements+1% N2 supplement (Stemcell Technologies)+penicillin/streptomycin+Laminin. They were plated at 20000 cells per well of a 384 well plate (pre-coated with poly-D-lysine and Laminin) in 70 μL of growth medium. Cells were incubated at 37° C./5% CO2 in a humidified cell culture incubator. Half of the culture medium was changed twice a week.\nMPP+-induced neurotoxicity: 24 hours after neuronal plating, half of the medium was removed and the test compounds were applied with MPP+ treatment, both concentrated at 4×, were added to the wells. For each condition, six aliquots were added, corresponding to columns A-F in Table 2. Except for the NT/NT row, in each row, either the compound indicated dissolved in its vehicle noted in Table 1 was added, or only a vehicle was added as indicated. Column F is an indicator of whether MPP+ was added. […]\nFor the evaluation of conditions 1-28, Neurite outgrowth was followed for subsequent 48 hours using an Incucyte Zoom platform with one phase contrast image every 4 hours, using a 20× objective. After 48 hours, the medium containing test compounds and MPP+ was removed and replaced by fresh medium containing a fluorescent cytolysis marker (red fluorescence) and a live cell marker (green fluorescence). […]\nAssay endpoints and data analysis. Phase contrast images were analyzed at each time point to determine the neurite length and number of branch points per mm^2. […]",
  "note": "Read-outs that look alike come from different tables or passages of the source.",
  "data": [
    {"molecule": "C[C@H](CCC(=O)NCCS(=O)(=O)O)[C@H]1CC[C@H]2[C@@H]3[C@@H](O)C[C@@H]4C[C@H](O)CC[C@]4(C)[C@H]3CC[C@]12C", "note": "[TUDCA, tauroursodeoxycholic acid]", "values": [
      {"measurement": "Neurite length, plate 1: Stat vs Control/MPP+", "setting": "MPP+ 100 μM, Table 6.1", "result": "*** (*** = p < 0.001)"},
      {"measurement": "Neurite branching, Plate 1: Stat vs Control/MPP+", "setting": "MPP+ 100 μM, Table 7.1", "result": "** (** = p < 0.01)"}
    ]},
    {"molecule": "Sodium Phenylbutyrate [PBA]", "values": [
      {"measurement": "Neurite length, plate 1: Stat vs Control/MPP+", "result": "* (key: NS = Not Significant; * = p < 0.05; ** = p < 0.01; *** = p < 0.001)"},
      {"measurement": "Number of branch points: Stat vs Control/MPP+", "result": "* (key: NS = Not Significant; * = p < 0.05; ** = p < 0.01; *** = p < 0.001)"}
    ]}
  ]
}
